Data source: PubChem BioAssay AID1224830 (NIAID, 2016)
This is an unselected part of about 18,000 reagents tested. About 2,900 of them (16%) were called active. 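Calls are made per well; low scores hint the gene aids the LPS response, high scores that it dampens it.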 Repeated entries: four replicate wells of each siRNA pool. Reagent sequences are not shown.

Screen: 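Genes whose knock-down alters the TNF-alpha reporter response to LPS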 (primary screen)
Cells: human THP-1 monocytic leukaemia cells, TNF dual-luciferase reporter clone, PMA-differentiated to macrophage-like cells
Reagent: siRNA pool against human genes, 50 nM
Time to read-out: LPS for 4 h, given about 3 days after siRNA transfection
Challenge: bacterial LPS (TLR4 ligand), 10 ng/ml
Detection: 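TNF firefly reporter luminescence divided by renilla, normalised to the plate median, then turned into a robust z-score for each replicate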
Reading the numbers: TNF reporter robust z-score: higher = stronger TNF reporter response to LPS
Rule for the call: 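Each well counts as active if its z-score is over 2.8 or under -1.5; controls are left without a call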

gene knocked down	TNF reporter robust z-score	outcome
PTPN9	0.04	inactive
PTPN9	1.28	inactive
PTPN9	0.76	inactive
PTPN9	0.89	inactive
A4GALT	1.17	inactive
A4GALT	2.37	inactive
A4GALT	1.65	inactive
A4GALT	2.48	inactive
ASPDH	-0.29	inactive
ASPDH	-0.06	inactive
ASPDH	0.12	inactive
ASPDH	0.07	inactive
SIGLEC10	-1.43	inactive
SIGLEC10	-0.84	inactive
SIGLEC10	-0.91	inactive
SIGLEC10	-0.82	inactive
CYP39A1	-0.35	inactive
CYP39A1	0.26	inactive
CYP39A1	0.55	inactive
CYP39A1	-0.53	inactive
GPC2		inactive
GPC2	-1.14	inactive
GPC2	-0.66	inactive
GPC2	-1.18	inactive
GPC2	-1.01	inactive
CARD17P	0.65	inactive
CARD17P	-0.15	inactive
CARD17P	0.35	inactive
CARD17P	0.22	inactive
SIN3B	-1.33	inactive
SIN3B	-0.91	inactive
SIN3B	-0.96	inactive
SIN3B	-0.46	inactive
TRPM6	0.83	inactive
TRPM6	-0.08	inactive
TRPM6	0.7	inactive
TRPM6	1.42	inactive
GUSB	-0.91	inactive
GUSB	-1.05	inactive
GUSB	-1.11	inactive
GUSB	-0.93	inactive
GTSF1L	-0.93	inactive
GTSF1L	-0.69	inactive
GTSF1L	-0.01	inactive
GTSF1L	0.31	inactive
CLCN6	-1.05	inactive
CLCN6	-0.65	inactive
CLCN6	-1.79	active
CLCN6	-1.67	active
F11R	0.47	inactive
F11R	-0.3	inactive
F11R	0.86	inactive
F11R	-0.23	inactive
U2AF2	0.12	inactive
U2AF2	-0.34	inactive
U2AF2	-0.07	inactive
U2AF2	-0.33	inactive
DNASE1	5.5	active
DNASE1	1.68	inactive
DNASE1	0.7	inactive
DNASE1	7.7	active
CDH1	0.51	inactive
CDH1	2.53	inactive
CDH1	0.54	inactive
CDH1	0.98	inactive
DISP2	-0.49	inactive
DISP2	0.05	inactive
DISP2	-0.72	inactive
DISP2	-0.64	inactive
ZNF575	0.98	inactive
ZNF575	1.39	inactive
ZNF575	2.44	inactive
ZNF575	0.83	inactive
HOXA10	-0.78	inactive
HOXA10	-0.61	inactive
HOXA10	-0.88	inactive
HOXA10	-0.64	inactive
BHMT2	-1.42	inactive
BHMT2	-1.02	inactive
BHMT2	-0.91	inactive
BHMT2	-1.67	active
NREP	-0.81	inactive
NREP	0.37	inactive
NREP	-1.32	inactive
NREP	-0.01	inactive
FGFBP2	-1	inactive
FGFBP2	-0.88	inactive
FGFBP2	-1.21	inactive
FGFBP2	-0.52	inactive
SERPING1	-1.2	inactive
SERPING1	-1.1	inactive
SERPING1	-0.42	inactive
SERPING1	-0.49	inactive
FGF8	-1.44	inactive
FGF8	-1.39	inactive
FGF8	-0.64	inactive
FGF8	-0.52	inactive
HMGCL	-1.59	active
HMGCL	-0.05	inactive
HMGCL	-1.93	active
HMGCL	-1.26	inactive
MESP2	0.53	inactive
MESP2	1.11	inactive
MESP2	1.46	inactive
MESP2	0.83	inactive
EOLA2	-0.71	inactive
EOLA2	2.28	inactive
EOLA2	-0.24	inactive
EOLA2	0.96	inactive
OTOG	0.09	inactive
OTOG	-0.51	inactive
OTOG	-0.52	inactive
OTOG	-0.12	inactive
